Reference: the supplement of paper PMC10849652
The list shows a part of the results.

Protein sequences, listed by entry. Tags and fused reporters are not part of them. Lines headed by an entry give the natural chain unless they say otherwise; changes in a name come on top.
UniProt Q6PII5: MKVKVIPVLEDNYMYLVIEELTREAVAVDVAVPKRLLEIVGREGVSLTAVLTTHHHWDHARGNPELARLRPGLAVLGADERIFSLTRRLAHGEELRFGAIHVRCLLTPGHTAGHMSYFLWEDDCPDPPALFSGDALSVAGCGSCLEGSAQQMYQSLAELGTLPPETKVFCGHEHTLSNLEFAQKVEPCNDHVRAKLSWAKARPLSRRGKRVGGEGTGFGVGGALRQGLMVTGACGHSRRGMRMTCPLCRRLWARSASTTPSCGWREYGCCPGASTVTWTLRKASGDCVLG
UniProt Q9Y450, whole entry, looked up: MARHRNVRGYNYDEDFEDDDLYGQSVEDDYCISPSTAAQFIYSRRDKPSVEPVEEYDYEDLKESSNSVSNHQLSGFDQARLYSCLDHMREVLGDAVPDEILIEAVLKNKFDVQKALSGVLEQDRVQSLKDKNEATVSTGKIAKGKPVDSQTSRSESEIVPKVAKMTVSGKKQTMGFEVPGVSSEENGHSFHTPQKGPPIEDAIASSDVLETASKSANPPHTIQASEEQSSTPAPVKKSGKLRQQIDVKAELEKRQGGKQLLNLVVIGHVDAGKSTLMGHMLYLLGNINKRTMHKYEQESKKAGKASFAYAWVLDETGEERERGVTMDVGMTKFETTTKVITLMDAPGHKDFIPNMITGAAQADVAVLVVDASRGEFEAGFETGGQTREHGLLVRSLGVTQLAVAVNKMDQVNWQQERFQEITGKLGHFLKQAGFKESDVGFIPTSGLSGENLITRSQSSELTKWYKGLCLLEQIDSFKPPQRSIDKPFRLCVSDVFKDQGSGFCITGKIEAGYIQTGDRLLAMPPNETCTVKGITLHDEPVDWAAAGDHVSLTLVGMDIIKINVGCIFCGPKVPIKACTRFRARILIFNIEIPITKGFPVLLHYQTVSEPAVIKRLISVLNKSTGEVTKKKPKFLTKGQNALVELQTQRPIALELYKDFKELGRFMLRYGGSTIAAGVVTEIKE
UniProt Q16836: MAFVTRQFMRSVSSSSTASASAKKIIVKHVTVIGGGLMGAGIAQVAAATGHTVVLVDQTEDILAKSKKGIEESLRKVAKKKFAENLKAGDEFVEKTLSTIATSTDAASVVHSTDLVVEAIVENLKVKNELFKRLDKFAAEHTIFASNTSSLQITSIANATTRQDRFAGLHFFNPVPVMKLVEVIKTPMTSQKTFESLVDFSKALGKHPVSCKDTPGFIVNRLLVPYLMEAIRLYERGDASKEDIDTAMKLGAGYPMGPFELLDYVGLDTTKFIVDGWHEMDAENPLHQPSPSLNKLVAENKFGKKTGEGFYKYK
UniProt P02724: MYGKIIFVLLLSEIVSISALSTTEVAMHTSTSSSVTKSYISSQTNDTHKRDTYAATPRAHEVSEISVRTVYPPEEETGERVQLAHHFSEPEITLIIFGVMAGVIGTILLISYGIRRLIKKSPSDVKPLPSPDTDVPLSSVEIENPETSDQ
UniProt P56524: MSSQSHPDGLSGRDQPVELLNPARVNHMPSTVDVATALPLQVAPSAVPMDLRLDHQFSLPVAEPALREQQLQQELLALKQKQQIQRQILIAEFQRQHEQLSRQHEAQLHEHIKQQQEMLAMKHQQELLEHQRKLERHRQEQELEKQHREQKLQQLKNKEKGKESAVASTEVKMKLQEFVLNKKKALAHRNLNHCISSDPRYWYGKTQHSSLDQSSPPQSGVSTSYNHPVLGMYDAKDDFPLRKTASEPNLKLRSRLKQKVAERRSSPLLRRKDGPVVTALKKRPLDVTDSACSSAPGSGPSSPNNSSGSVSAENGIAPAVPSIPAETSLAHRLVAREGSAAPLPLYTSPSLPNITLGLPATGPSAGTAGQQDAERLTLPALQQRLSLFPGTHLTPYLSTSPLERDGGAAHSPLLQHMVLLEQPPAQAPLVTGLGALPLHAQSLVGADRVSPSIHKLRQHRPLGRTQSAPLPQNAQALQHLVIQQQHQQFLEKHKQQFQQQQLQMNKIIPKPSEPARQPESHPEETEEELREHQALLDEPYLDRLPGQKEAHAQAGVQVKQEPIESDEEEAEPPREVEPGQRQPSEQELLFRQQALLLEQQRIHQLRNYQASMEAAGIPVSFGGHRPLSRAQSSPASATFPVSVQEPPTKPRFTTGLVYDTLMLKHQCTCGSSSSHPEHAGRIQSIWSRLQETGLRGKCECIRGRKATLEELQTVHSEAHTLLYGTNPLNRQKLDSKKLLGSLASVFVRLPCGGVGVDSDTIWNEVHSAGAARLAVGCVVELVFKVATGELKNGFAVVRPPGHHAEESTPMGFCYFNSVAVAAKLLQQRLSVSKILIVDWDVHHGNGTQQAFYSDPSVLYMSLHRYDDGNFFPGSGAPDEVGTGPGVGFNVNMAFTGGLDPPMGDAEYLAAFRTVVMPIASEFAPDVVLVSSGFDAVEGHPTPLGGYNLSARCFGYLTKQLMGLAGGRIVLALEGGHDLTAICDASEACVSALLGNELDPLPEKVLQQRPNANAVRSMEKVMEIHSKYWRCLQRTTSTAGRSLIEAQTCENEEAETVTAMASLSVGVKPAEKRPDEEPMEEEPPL
UniProt Q9BSH5: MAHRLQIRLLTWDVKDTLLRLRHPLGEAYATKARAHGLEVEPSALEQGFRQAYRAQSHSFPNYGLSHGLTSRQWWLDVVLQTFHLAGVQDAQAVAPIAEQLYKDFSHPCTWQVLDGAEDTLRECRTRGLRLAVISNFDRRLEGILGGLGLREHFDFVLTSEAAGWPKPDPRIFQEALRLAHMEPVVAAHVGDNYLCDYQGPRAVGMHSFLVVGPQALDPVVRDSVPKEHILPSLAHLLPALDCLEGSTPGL
UniProt P40939: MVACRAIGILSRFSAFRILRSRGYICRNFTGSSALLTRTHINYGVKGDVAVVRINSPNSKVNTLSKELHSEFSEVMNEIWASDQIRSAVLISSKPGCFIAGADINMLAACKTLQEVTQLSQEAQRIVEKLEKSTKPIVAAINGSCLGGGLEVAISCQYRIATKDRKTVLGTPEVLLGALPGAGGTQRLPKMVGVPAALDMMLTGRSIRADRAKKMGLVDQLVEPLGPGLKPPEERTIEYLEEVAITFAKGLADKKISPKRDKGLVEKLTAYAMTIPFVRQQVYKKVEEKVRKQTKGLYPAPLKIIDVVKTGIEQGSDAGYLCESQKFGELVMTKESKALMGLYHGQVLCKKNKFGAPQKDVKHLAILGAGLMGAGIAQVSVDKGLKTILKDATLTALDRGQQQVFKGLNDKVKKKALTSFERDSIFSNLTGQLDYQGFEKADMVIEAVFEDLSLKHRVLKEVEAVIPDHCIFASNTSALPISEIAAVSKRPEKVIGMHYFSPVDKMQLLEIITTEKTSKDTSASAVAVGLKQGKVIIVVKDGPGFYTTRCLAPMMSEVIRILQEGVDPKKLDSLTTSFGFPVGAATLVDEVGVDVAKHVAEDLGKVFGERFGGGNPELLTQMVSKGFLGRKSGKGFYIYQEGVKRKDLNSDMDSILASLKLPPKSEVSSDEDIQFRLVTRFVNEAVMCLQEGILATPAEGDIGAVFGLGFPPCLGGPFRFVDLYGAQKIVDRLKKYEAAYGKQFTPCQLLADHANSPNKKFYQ
UniProt P02042: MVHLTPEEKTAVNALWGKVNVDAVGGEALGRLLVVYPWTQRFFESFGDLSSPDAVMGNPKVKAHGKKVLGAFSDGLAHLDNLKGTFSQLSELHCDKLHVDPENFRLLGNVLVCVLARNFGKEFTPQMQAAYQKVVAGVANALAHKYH

Columns and labels:
Assay in all cases: log2 fold change, soluble protein after heating vs DMSO (PISA); higher = thermal stabilisation; K562 lysate, 10 uM; active = over 0.2 and 3.5 SD of the protein, either way, in both replicates (recomputed)
[1] = compound: CCCS(=O)(=O)Nc1ccc(F)c(C(=O)c2c[nH]c3ncc(-c4ccc(Cl)cc4)cc23)c1F [vemurafenib]
How it was run: (§1)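 The values are log-two fold changes in thermal stability compared with solvent controls and come from duplicates. They were obtained by TMTpro 16plex LC-MS/MS, with channel sums equalised, on the supernatant after 21,000xg for 90 min. That supernatant came from crude K562 extract at 1 mg/mL protein treated with 10 μM compound for 30 min, heated for 3 min across 48°C-58°C, pooled and brought to 0.5% NP-40 at 4°C.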

[2] = compound: CCCS(=O)(=O)Nc1ccc(F)c(C(=O)c2c[nH]c3ncc(Cl)cc23)c1F
How it was run: as §1

[3] = compound: CCN(CCCOc1ccc2c(Nc3cc(CC(=O)Nc4cccc(F)c4)[nH]n3)ncnc2c1)CCOP(=O)(O)O [barasertib]
How it was run: as §1

[4] = compound: CC[C@@H]1C(=O)N(C)c2cnc(Nc3ccc(C(=O)NC4CCN(C)CC4)cc3OC)nc2N1C1CCCC1
How it was run: as §1

[5] = compound: CC[C@@H]1C(=O)N(C)c2cnc(Nc3ccc(C(=O)N[C@H]4CC[C@H](N5CCN(CC6CC6)CC5)CC4)cc3OC)nc2N1C(C)C [volasertib]
How it was run: as §1

[6] = compound: CCn1c(C(=O)N(C2CC2)C2CC2)cc2c3c(ncn3C)c(Nc3cc(C)n(C)n3)nc21
How it was run: as §1

[7] = compound: CN1CCN(CCOc2cc(OC3CCOCC3)c3c(Nc4c(Cl)ccc5c4OCO5)ncnc3c2)CC1 [saracatinib]
How it was run: as §1

[8] = compound: CN1CCN(c2nc(C3=C(c4c[nH]c5ccccc45)C(=O)NC3=O)c3ccccc3n2)CC1 [sotrastaurin]
How it was run: as §1

[9] = compound: CN1CCc2c(c3ccccc3n2Cc2ccc(C(=O)NO)cc2)C1 [Tubastatin A]
How it was run: as §1

[10] = compound: CNC(=O)C1=CC=CC=C1NC2=NC(=NC=C2Cl)NC3=C(C=C(C=C3)N4CCOCC4)OC
How it was run: as §1

[11] = compound: CNC(=O)c1ccc(Nc2ncc(C(F)(F)F)c(NCc3nccnc3N(C)S(C)(=O)=O)n2)cc1 [defactinib]
How it was run: as §1

[12] = compound: CNc1nc(-c2ccc3c(N)n[nH]c3c2)cc(N2C[C@@H](C(=O)NC3CCCCC3)CC[C@H]2C)n1
How it was run: as §1

[13] = compound: COC(=O)N[C@@H](C)CNc1nccc(-c2cn(C(C)C)nc2-c2cc(Cl)cc(NS(C)(=O)=O)c2F)n1 [encorafenib]
How it was run: as §1

[14] = compound: COC(=O)[C@H](CCSC)NC(=O)C1=C(C=C(C=C1)NC[C@H](CS)N)C2=CC=CC=C2
How it was run: as §1

[15] = compound: COc1cc(Nc2ncc3c(n2)-c2ccc(Cl)cc2C(c2c(F)cccc2OC)=NC3)ccc1C(=O)O [alisertib]
How it was run: as §1

[16] = compound: COc1cc2nc(-c3cc(F)ccc3O)nc(N[C@@H]3CNC[C@H]3C(C)(C)O)c2cc1OC
How it was run: as §1

[17] = compound: COc1cc2ncnc(Nc3ccc(F)c(Cl)c3)c2cc1OCCCN1CCOCC1 [gefitinib]
How it was run: as §1

[18] = compound: CCn1cc(-c2ccnc3[nH]c(-c4cccc(CN(C)C)c4)cc23)c(-c2ccc(NC(=O)N(C)C)cc2)n1
How it was run: as §1

[19] = compound: CN1CCC(CNc2ccc3ncc(-c4cccc(OC(F)(F)F)c4)n3n2)CC1
How it was run: as §1

[20] = compound: CN1CC[C@H](c2c(O)cc(O)c3c(=O)cc(-c4ccccc4Cl)oc23)[C@H](O)C1 [alvocidib]
How it was run: as §1

| Target | log2 fold change [1] | log2 fold change [2] | log2 fold change [3] | log2 fold change [4] | log2 fold change [5] | log2 fold change [6] | log2 fold change [7] | log2 fold change [8] | log2 fold change [9] | log2 fold change [10] | log2 fold change [11] | log2 fold change [12] | log2 fold change [13] | log2 fold change [14] | log2 fold change [15] | log2 fold change [16] | log2 fold change [17] | log2 fold change [18] | log2 fold change [19] | log2 fold change [20] |
| --- | --- | --- | --- | --- | --- | --- | --- | --- | --- | --- | --- | --- | --- | --- | --- | --- | --- | --- | --- | --- |
| HAGHL isoform 2 (UniProt Q6PII5) | inactive: 0.044 | inactive: 0.019 | inactive: 0.013 | inactive: 0.079 | inactive: -0.029 | inactive: 0.049 | inactive: -0.003 | inactive: -0.011 | inactive: 0.007 | inactive: 0.015 | inactive: -0.03 | inactive: 0.024 | inactive: 0.038 | inactive: -0.049 | inactive: 0.048 | inactive: 0.039 | inactive: 0.123 |  |  |  |
| HBS1L (UniProt Q9Y450) | inactive: 0.036 | inactive: 0.018 | inactive: -0.014 | inactive: -0.071 | inactive: -0.03 | inactive: -0.004 | inactive: 0.021 | inactive: 0.022 | inactive: -0.114 | inactive: 0.037 | inactive: -0.018 | inactive: -0.009 | inactive: 0.012 | inactive: 0.107 | inactive: 0.019 | inactive: -0.01 | inactive: -0.018 | inactive: 0.034 | inactive: -0.045 | inactive: -0.03 |
| HADH isoform 2 (UniProt Q16836) | inactive: -0.032 | inactive: -0.022 | inactive: -0.049 | inactive: 0.002 | inactive: 0.004 | inactive: 0.009 | inactive: -0.096 | inactive: 0.004 | inactive: 0.003 | inactive: -0.024 | inactive: 0.061 | inactive: 0.09 | inactive: -0.048 | inactive: 0.03 | inactive: 0.021 | inactive: -0.002 | inactive: 0.042 | inactive: 0.066 | inactive: -0.054 | inactive: 0.048 |
| GYPA (UniProt P02724) | inactive: -0.011 | inactive: -0.008 | inactive: 0.254 | inactive: 0.188 | inactive: 0.009 | inactive: -0.081 | inactive: 0.01 | inactive: 0.011 | inactive: 0.068 | inactive: 0.005 | inactive: 0.063 | inactive: 0.207 | inactive: -0.004 | inactive: -0.015 |  | inactive: 0.06 |  | active: 0.587 | inactive: -0.259 | inactive: 0.311 |
| HDAC4 (UniProt P56524) | inactive: 0.02 | inactive: 0 | inactive: -0.009 | inactive: -0.065 | inactive: 0.028 | inactive: -0.013 | inactive: 0.013 | inactive: 0 | inactive: 0.039 | inactive: -0.037 | inactive: 0.004 | inactive: 0.055 | inactive: 0.036 | inactive: -0.03 | inactive: 0.021 | inactive: 0.054 | inactive: -0.151 | inactive: -0.032 | inactive: 0.025 | inactive: -0.1 |
| UniProt H0YHG0 | inactive: 0.003 | inactive: -0.004 | inactive: -0.066 | inactive: 0.08 | inactive: 0.05 | inactive: -0.039 | inactive: -0.007 | inactive: 0.037 | inactive: 0.06 | inactive: 0.005 | inactive: -0.039 | inactive: 0.046 | inactive: -0.01 | inactive: -0.007 | inactive: 0.013 | inactive: 0.014 | inactive: -0.009 | inactive: -0.085 | inactive: 0.082 | inactive: -0.049 |
| HDHD3 (UniProt Q9BSH5) | inactive: -0.038 | inactive: 0.038 | inactive: 0.137 | inactive: -0.002 | inactive: 0.025 | inactive: -0.043 | inactive: -0.032 | inactive: 0.033 | inactive: -0.015 | inactive: 0.046 | inactive: 0.003 | inactive: -0.016 | inactive: 0.024 | inactive: -0.055 | inactive: 0.033 | inactive: 0.001 | inactive: -0.031 | inactive: 0.009 | inactive: -0.011 | inactive: 0 |
| HADHA (UniProt P40939) | inactive: 0.019 | inactive: -0.002 | inactive: -0.103 | inactive: -0.024 | inactive: 0.09 | inactive: -0.036 | inactive: -0.04 | inactive: -0.025 | inactive: -0.003 | inactive: 0.069 | inactive: -0.042 | inactive: 0.037 | inactive: -0.063 | inactive: 0.088 | inactive: -0.017 | inactive: -0.041 | inactive: 0.021 | inactive: 0.012 | inactive: 0.071 | inactive: -0.011 |
| HBD (UniProt P02042) | inactive: 0.01 | inactive: -0.03 | inactive: 0.084 | inactive: -0.041 | inactive: 0.072 | inactive: -0.002 | inactive: 0.007 | inactive: -0.059 | inactive: 0.083 | inactive: 0.095 | inactive: 0.036 | inactive: 0.003 | inactive: 0.027 | inactive: -0.06 | inactive: 0.031 | inactive: 0.025 | inactive: -0.146 | inactive: 0.033 | inactive: -0.027 | inactive: 0.051 |
